Results from one PubChem assay

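A cell-based FRET test of anthrax lethal toxin entry, tracked through the 460 nm emission signal; the cell line is not named here.
Each compound was tested as a concentration series from about 0.0005 to 40 µM.
The number is the fitted AC50 of the 460 nm signal alone; lower values mean a more potent effect. A falling signal goes with compounds filed as inhibitors or cytotoxic, a rising one with activators or fluorescent compounds (inferred from the filed classes).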

Values are in µM.
Common to all entries: measured here: 460 nm channel.
This is a side read-out of the assay, for part of the compounds, not drawn at random.
Potencies fitted to partial, single-point or poorly fitting curves are rough.
The first word of each remark tells which way the curve ran; it can be opposite to the aim of the assay.

Result for CC1CCCN(c2nc3c(c(=O)[nH]c(=O)n3C)n2CCCc2ccccc2)C1 (stereo not given) was AC50 31.62 µM (falling, single point). Cc1ccc2nc(NC(=O)CCNS(=O)(=O)c3ccc(Br)s3)sc2c1 read AC50 12.59 µM (falling, single point). Cc1ccc(-c2cc(-c3ccccc3Cl)c(C#N)c(N)n2)o1 read AC50 10 µM (rising, partial curve). CCOC(=O)C1CCN(C(c2cccs2)c2sc3nc(C)nn3c2O)CC1 (stereo not given) gave AC50 12.59 µM (rising, single point).

Result for CC(C)(C)N1C(=O)[C@H]2[C@H]3[C@H](O)[C@H](O)C/C(=N/OCc4ccccc4)[C@H]3CC[C@@H]2C1=O was AC50 5.012 µM (rising, single point). With CC[C@H](Oc1ccc(Cl)cc1)C(=O)OC1C[C@H]2CC[C@@H](C1)N2C (stereo not given in full) the assay gave AC50 0.003162 µM (rising, full curve, poor fit). Result for c1ccc(C(Cc2nc(-c3cccnc3)no2)c2ccccc2)cc1 was AC50 25.12 µM (falling, partial curve). Cc1scc2c1N(C(=O)CN1CCN(C)CC1)c1ccccc1NC2=O read AC50 5.012 µM (rising, partial curve).

O=C(OC(C(=O)NCc1cccs1)c1ccccc1Cl)c1ccco1 (stereo not given) gave AC50 19.95 µM (rising, single point). With CCN1CCN(Cc2c(OC)ccc3ccccc23)CC1 the assay gave AC50 5.012 µM (rising, single point). CCC(=O)c1cc2c(cc1NC(=O)c1cccs1)OCCO2 read AC50 12.59 µM (rising, single point). With COc1cc2c(cc1OC)[C@]13CCN4CC5=CCO[C@@H]6CC(=O)N2[C@@H]1[C@H]6[C@@H]5C[C@H]43 the assay gave AC50 31.62 µM (falling, single point).

Result for CC1CC(C(F)(F)C(F)(F)F)n2nc(C(=O)O)cc2N1 (stereo not given) was AC50 0.0631 µM (falling, partial curve, poor fit). Result for O=S1(=O)N(CCN2CC=C(c3c[nH]c4cc(F)ccc34)CC2)c2cccc3c2N1CCC3 was AC50 12.59 µM (falling, partial curve). O=C(COc1ccccc1O)N1CCN(C(=O)c2ccco2)CC1 read AC50 0.02512 µM (falling, full curve, poor fit). For O=c1oc(-c2cccs2)nc2sc3c(c12)CCCCC3 the result was AC50 3.981 µM (rising, single point).

Result for CC(C)(C)CC(C)(C)c1ccc(OCOCCOCCO)c(Cc2cc(C(C)(C)CC(C)(C)C)cc(Cc3cc(C(C)(C)CC(C)(C)C)ccc3OCOCCOCCO)c2OCOCCOCCO)c1 was AC50 0.0631 µM (rising, full curve, poor fit). COc1ccccc1-c1cc(C(=O)N2CCc3ccccc3C2)no1 gave AC50 15.85 µM (falling, partial curve). Result for CC(C)Cc1ccc(C(C)C(=O)N2CCOCC2)cc1 (stereo not given) was AC50 0.003162 µM (falling, full curve, poor fit). Result for COC(=O)c1cc2sccc2n1CC(=O)N1CCCc2ccccc21 was AC50 12.59 µM (falling, partial curve).

With O=C(C1Cc2ccccc2CN1S(=O)(=O)c1ccc(F)cc1)N1CCCCC1 (stereo not given) the assay gave AC50 1.995 µM (falling, single point). CCN(CC)c1ccc(NC(=O)c2cc(OC)cc(OC)c2)c(C)c1 read AC50 3.981 µM (falling, partial curve). With COc1ccc(NC(=O)CCN2CCCC(C)C2)cc1 (stereo not given) the assay gave AC50 0.3162 µM (falling, single point). With c1coc(-c2nc3ccccc3nc2-c2ccco2)c1 the assay gave AC50 25.12 µM (rising, single point).

With COc1ccc(OC2C=CC(C#Cc3ccc(F)cc3F)OC2CO)cc1 (stereo not given) the assay gave AC50 0.631 µM (falling, partial curve). With CN(C)c1ncc2nc(-c3cccc(C#N)c3)c(=O)n(C[C@H]3CCCO3)c2n1 the assay gave AC50 7.943 µM (rising, partial curve). CC(=O)Nc1nc2ccc(Br)cc2s1 read AC50 19.95 µM (falling, partial curve, poor fit).

Some entries from above, unchanged:

* CC(C)(C)CC(C)(C)c1ccc(OCOCCOCCO)c(Cc2cc(C(C)(C)CC(C)(C)C)cc(Cc3cc(C(C)(C)CC(C)(C)C)ccc3OCOCCOCCO)c2OCOCCOCCO)c1 : AC50 0.0631 µM (rising, full curve, poor fit)
* COc1cc2c(cc1OC)[C@]13CCN4CC5=CCO[C@@H]6CC(=O)N2[C@@H]1[C@H]6[C@@H]5C[C@H]43 : AC50 31.62 µM (falling, single point)

Source: PubChem BioAssay AID912 (NCATS, 2007).